For at least one entry, the source does not settle the construct or the ends of the probe. Results from cells or extracts need not show a direct contact. For some of these results: A negative result means that nothing was seen under these conditions.
Legend:
[1] = tested on: B1-8hi B cell receptor (NP-specific IgM/IgD, lambda1 light chain) (mouse (B1-8hi knock-in)); assay: flow cytometry and confocal microscopy; conditions: B1-8hi B cells, no hapten; LNA and 2'-OMe: Q1 mC+CmG+TmCmCmT+GmA+GmCmC; Q2 mCmA+CmA+GmTmG+GmA+CmGmG; Q3 mG+GmC+TmCmAmCmC+GmA+TmC; Q4 mGmA+TmC+GmGmAmC+TmG+TmG; 5'-NH2-C6; protein on the cell surface; label: AF647 on Q2; synthetic backbone
[2] = tested on: B1-8hi B cell receptor (NP-specific IgM/IgD, lambda1 light chain) (mouse (B1-8hi knock-in)); assay: flow cytometry; conditions: B1-8hi B cells, LNA/2'-OMe as N0, protein on the cell surface

“CCGTCCTGAGCC / CACAGTGGACGG / GGCTCACCGATC / GATCGGACTGTG [HJ-0xNP/NIP (naked HJ)]”: no binding [1].

“CCGTCCTGAGCC / CACAGTGGACGG / GGCTCACCGATC / GATCGGACTGTG [HJ-1xNIP]”: binds ([2]; via NIP, lost near 2:1 HJ:BCR, one 5' amino-C6 NIP hapten (carrier strand not stated), label: AF647 on Q2 (Atto488 for FIDA), synthetic …).

“CCGTCCTGAGCC / CACAGTGGACGG / GGCTCACCGATC / GATCGGACTGTG [HJ-1xNP]”: binds ([2]; via NP, lost near 2:1 HJ:BCR, one 5' amino-C6 NP hapten (carrier strand not stated), label: AF647 on Q2, synthetic backbone).

“CCGTCCTGAGCC / CACAGTGGACGG / GGCTCACCGATC / GATCGGACTGTG [HJ-2xNIP]”: binds ([2]; via NIP, two 5' amino-C6 NIP haptens (carrier strands not stated), label: AF647 on Q2, synthetic backbone).

“CCGTCCTGAGCC / CACAGTGGACGG / GGCTCACCGATC / GATCGGACTGTG [HJ-2xNP]”: binds ([2]; via NP, two 5' amino-C6 NP haptens (carrier strands not stated), label: AF647 on Q2, synthetic backbone).

“CCGTCCTGAGCC / CACAGTGGACGG / GGCTCACCGATC / GATCGGACTGTG [HJ-3xNIP]”: binds ([2]; via NIP, 5' amino-C6 NIP on Q1, Q3 and Q4, label: AF647 on Q2 (Atto488 for FIDA), synthetic backbone).

“CCGTCCTGAGCC / CACAGTGGACGG / GGCTCACCGATC / GATCGGACTGTG [HJ-3xNP]”: binds ([2]; via NP, 5' amino-C6 NP on Q1, Q3 and Q4, label: AF647 on Q2, synthetic backbone).
